Experimental data from US20200207835A1, “SRCP1-BASED THERAPY FOR DISEASES ASSOCIATED WITH PROTEIN AGGREGATION” (THE MEDICAL COLLEGE OF WISCONSIN, INC., priority 2017, published 2020).
Part of at least one peptide drawing is inferred or uncertain, most often the ends. No end group written: not given here.

The chains behind the UniProt entries cited, without tags or fusion partners. A line that says so, or that is headed by a name, gives the form on record, which may keep a tag or linker.
UniProt P42858, with tags, fused parts or gaps with the stated changes: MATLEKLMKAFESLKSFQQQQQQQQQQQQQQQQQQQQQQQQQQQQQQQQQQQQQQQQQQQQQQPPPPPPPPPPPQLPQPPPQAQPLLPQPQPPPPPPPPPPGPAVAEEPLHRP

Tests used:
Assay type in all cases: biochemical
Htt^Q46 [1] = molecular target: T1, Htt^Q46 (Homo sapiens, UniProt P42858, INS38QQQQQQQQQQQQQQQQQQQQQQQQQ); test: Dynamic light scattering of in vitro HttQ46 aggregation
T1 construct: Huntingtin exon-1 with 46 glutamines (Htt^Q46) in pET-32 was obtained from Addgene; pET-32 fusion tag (N, cleaved yes); host or cells: E. coli BL21

Htt^Q46 [2] = molecular target: T1, Htt^Q46; test: Thioflavin-T in vitro HttQ46 aggregation assay
Method: Huntingtin exon-1 with 46 glutamines (Htt^Q46) in pET-32 was obtained from Addgene. Htt^Q46 was grown in BL21 cells at 37° C. to an optical density of 0.6 and induced with IPTG at 1 mM overnight at 16° C. After induction cells were spun down at 7,000 rpm for 5 minutes and resuspended in resuspension buffer (15 mM Tris-HCl buffer, pH 8.0). For lysis, lysozyme was added and cells were incubated at 4° C. for 45 minutes. To obtain soluble fraction, lysates were spun down at 12,000 rpm for 10 minutes, after which supernatant was added to 3 ml of Ni-beads (GoldBio) per 100 ml of lysate and tumbled for 4 hours at 4° C. Beads were then washed three times with resuspension buffer and then washed three more times with wash buffer (50 mM Tris-HCl pH 8.0, 150 mM NaCl, 1 mM PMSF, 1 mM EDTA). Protein was then eluted off beads by tumbling overnight at 4° C. in 25 mL of wash buffer with 250 mM imidazole.
Aggregation assays were performed as previously described in Kakkar, V. et al. Briefly, 15 μM Htt^46Q was mixed with 90 μM SRCP1 peptide (GenScript) (1:6, 1:3, 1:1.5) and 10 μM Thioflavin-T (Sigma-Aldrich). All samples were prepared on ice in buffer containing 20 mM Tris-HCl pH 8.0, 50 mM NaCl, 2 mM CaCl2). […] Fluorescence was measured with the excitation at 440 nm and emission at 480 nm, every 5 minutes using a Tecan Plate reader.

Htt^Q46 [3] = molecular target: T1, Htt^Q46; test: Filter trap analysis of recombinant HttQ46
Htt^Q46 [4] = molecular target: T1, Htt^Q46; test: Electron microscopy of in vitro HttQ46 aggregation
[5] = 3:1 peptide to HttQ46, 72 hours

LIWGVYGFIRGGVGLVKWRG [SEQ ID NO:9]
larger HttQ46 species by dynamic light scattering (Htt^Q46 [1]; 3:1 peptide to HttQ46, 5 hours): decreases larger Htt^Q46 species | larger HttQ46 species by dynamic light scattering (Htt^Q46 [1]; [5]): delays but does not prevent the formation of larger Htt^Q46 species | HttQ46 aggregation measured by Thioflavin-T fluorescence (Htt^Q46 [2]; 1.5:1 and 3:1 molar ratios of peptide to HttQ46): delay, but not prevention of | aggregation of HttQ46 measured by Thioflavin-T fluorescence (Htt^Q46 [2]; increasing ratios of SRCP1 peptide to HttQ46): sufficient to suppress aggregation of Htt^Q46 in vitro | aggregated HttQ46 by filter trap assay (Htt^Q46 [3]; 3:1 peptide to HttQ46, 5 hours): decreases aggregated Htt^Q46 | HttQ46 aggregation by filter trap assay (Htt^Q46 [3]; [5]): does not prevent Htt^Q46 aggregation over 72 hours | HttQ46 fibrils by EM (Htt^Q46 [4]; 3:1 peptide to HttQ46, 5 hours): decreases Htt^Q46 fibrils | HttQ46 amyloid fiber formation by EM (Htt^Q46 [4]; [5]): delays but does not prevent Htt^Q46 amyloid fiber formation
